PubChem BioAssay AID686943 | Drosophila RNAi Screening Center | 2013
The screen tested about 23,000 reagents; below is an unselected part of those with a known target gene and a result. 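Extra replicates exist only for a retested subset of genes; insulin dose and duration not given; both raised and lowered dpERK matter.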 Reagents against one gene are numbered here. A plus sign joins genes that one reagent is predicted to hit. Not all columns of the deposit are shown. The record does not give: the amount of reagent, the time to read-out.

Purpose: 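Fly genes whose loss alters ERK activation after insulin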 (primary screen)
Cell system: Drosophila S2R+ haemocyte-like cells expressing YFP-tagged ERK (Rolled)
Knock-down reagent: long dsRNA against Drosophila genes
Challenge: insulin stimulation versus unstimulated cells; dose and duration not given
Read-out: 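Antibody staining for doubly phosphorylated ERK divided by ERK-YFP signal, as plate z-scores, in insulin-treated and untreated cells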
Reading the numbers: replicate 1, z-score of dpERK with insulin and replicate 2, z-score of dpERK with insulin: higher = more active ERK per ERK-YFP after insulin

What did the screen give for Polr3A (GeneID 32524)?
replicate 1, z-score of dpERK with insulin: 0.3; replicate 2, z-score of dpERK with insulin: 0.02

With CG1986 (GeneID 31925), what was measured?
replicate 1, z-score of dpERK with insulin: -1.87; replicate 2, z-score of dpERK with insulin: -1.09

For hoe1 (GeneID 249663) #1, how do the results read?
replicate 1, z-score of dpERK with insulin: -0.31; replicate 2, z-score of dpERK with insulin: -0.74

For hoe1 (GeneID 249663) #2, how do the results read?
replicate 1, z-score of dpERK with insulin: 0.66; replicate 2, z-score of dpERK with insulin: 1.51

With hoe1 (GeneID 249663) #3, what was measured?
replicate 1, z-score of dpERK with insulin: 1.62; replicate 2, z-score of dpERK with insulin: 1.93

With CDK2AP1 (GeneID 32050), what does the deposit list?
replicate 1, z-score of dpERK with insulin: -0.42; replicate 2, z-score of dpERK with insulin: 0.5

With Ssdp (GeneID 42177), what does the deposit list?
replicate 1, z-score of dpERK with insulin: -0.45; replicate 2, z-score of dpERK with insulin: 0.29

With grass (GeneID 43273), what was measured?
replicate 1, z-score of dpERK with insulin: 1.39; replicate 2, z-score of dpERK with insulin: -0.97

For CG43098 (GeneID 12798585), what does the deposit list?
replicate 1, z-score of dpERK with insulin: 0.33; replicate 2, z-score of dpERK with insulin: 1.38

How did the screen score CG7432 (GeneID 42347)?
replicate 1, z-score of dpERK with insulin: 0.1; replicate 2, z-score of dpERK with insulin: 0.15

For CG8260 (GeneID 32521), what was measured?
replicate 1, z-score of dpERK with insulin: 0.16; replicate 2, z-score of dpERK with insulin: 0.25

What is on record for Lztr1 (GeneID 31037) #1?
replicate 1, z-score of dpERK with insulin: 1.3; replicate 2, z-score of dpERK with insulin: 0

For Lztr1 (GeneID 31037) #2, what was measured?
replicate 1, z-score of dpERK with insulin: 1.1; replicate 2, z-score of dpERK with insulin: 0

For obe (GeneID 41891), what does the deposit list?
replicate 1, z-score of dpERK with insulin: -0.43; replicate 2, z-score of dpERK with insulin: 0.01

What did the screen give for CG8004 (GeneID 40178)?
replicate 1, z-score of dpERK with insulin: -1.25; replicate 2, z-score of dpERK with insulin: -1.34

What did the screen give for CG17111 (GeneID 42727)?
replicate 1, z-score of dpERK with insulin: 0.01; replicate 2, z-score of dpERK with insulin: -0.2

With Cyp4p3 (GeneID 35948), what does the deposit list?
replicate 1, z-score of dpERK with insulin: 0.54; replicate 2, z-score of dpERK with insulin: 0.93

Which result is listed for CG14034 (GeneID 33751)?
replicate 1, z-score of dpERK with insulin: 0.08; replicate 2, z-score of dpERK with insulin: -0.38

What did the screen give for Fpgs2 (GeneID 326159)?
replicate 1, z-score of dpERK with insulin: -0.4; replicate 2, z-score of dpERK with insulin: 0.49

With BoYb (GeneID 40512), what does the deposit list?
replicate 1, z-score of dpERK with insulin: 0.61; replicate 2, z-score of dpERK with insulin: 0.37

An excerpt from above, reduced to “replicate 1, z-score of dpERK with insulin”:
obe (GeneID 41891) = -0.43
CG8004 (GeneID 40178) = -1.25

Further reagents follow.
For CG10405 (GeneID 41996), what was measured?
replicate 1, z-score of dpERK with insulin: 0.4; replicate 2, z-score of dpERK with insulin: 0.41

What did the screen give for CG44774 (GeneID 31424)?
replicate 1, z-score of dpERK with insulin: -0.06; replicate 2, z-score of dpERK with insulin: 0.51

With ppk27 (GeneID 38440) #1, what was measured?
replicate 1, z-score of dpERK with insulin: 1.23; replicate 2, z-score of dpERK with insulin: 0.53

With ppk27 (GeneID 38440) #2, how do the results read?
replicate 1, z-score of dpERK with insulin: -0.51; replicate 2, z-score of dpERK with insulin: 0.37

How did the screen score dare (GeneID 36203)?
replicate 1, z-score of dpERK with insulin: -0.25; replicate 2, z-score of dpERK with insulin: -0.05

What did the screen give for CG30114 (GeneID 246465)?
replicate 1, z-score of dpERK with insulin: 0.6; replicate 2, z-score of dpERK with insulin: 0.9

With fd19B (GeneID 33010), what was measured?
replicate 1, z-score of dpERK with insulin: 0.57; replicate 2, z-score of dpERK with insulin: 0.51

Which result is listed for LysD + LysC (retired record) #1?
replicate 1, z-score of dpERK with insulin: 0.33; replicate 2, z-score of dpERK with insulin: 0.47

For LysD + LysC (retired record) #2, what was measured?
replicate 1, z-score of dpERK with insulin: 0.28; replicate 2, z-score of dpERK with insulin: -0.04

For OtopLc (GeneID 7354434) #1, what does the deposit list?
replicate 1, z-score of dpERK with insulin: -0.21; replicate 2, z-score of dpERK with insulin: 0.81

Which result is listed for OtopLc (GeneID 7354434) #2?
replicate 1, z-score of dpERK with insulin: 0.59; replicate 2, z-score of dpERK with insulin: 1.31

What is on record for OtopLc (GeneID 7354434) #3?
replicate 1, z-score of dpERK with insulin: -0.78; replicate 2, z-score of dpERK with insulin: 0
